Assay results from PubChem BioAssay AID2685 (National Center for Advancing Translational Sciences (NCATS), 2010).
Among all 320,000 compounds or so, about 2,100 (0.66%) were called active. The shares of active, inactive and inconclusive entries below differ from those in the screen. The call rests on the fitted dose curve; in most records, active means well fitted inhibition curve with a large enough effect in the signal ratio, with a control signal flat (not every such curve was filed as active); inconclusive means small, poorly fitted or top-dose-only effect, or effect the other way, or a change in a side signal; inactive means flat fitted curve, though single readings scatter; the % refers to the signal ratio. Potencies beside an inconclusive call are fits to weak or partial responses and may not hold up.

Assay: qHTS Assay for Lipid Storage Modulators in Drosophila S3 Cells
Settings: BODIPY lipid droplet fluorescence, 18-24 h, cells fed with added oleic acid; lipid storage change, negative = inhibition: at 46.1 µM (top of the series) unless noted
Procedure, shortened: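 Laser-scanning cytometry quantifies lipid droplet accumulation (500–530 nm total intensity; droplet/cell object ratio) in oleic acid-fed (400 uM added) Drosophila S3 cells treated with a concentration series. 20 uM Triacsin C defined 100% inhibition.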
On the % scale 0 is the no-effect control and ±100 the full control effect; potency means the concentration at half of the fitted maximal effect.

| SMILES | lipid storage change, negative = inhibition | outcome | Potency |
| --- | --- | --- | --- |
| O=C(O)Cc1ccc(NC(=O)Nc2cccc(Cl)c2)cc1 | inconclusive: -7.86% |  |  |
| CC(=O)Nc1cccc(C(=O)OCC(=O)NNC(=O)c2cccs2)c1 | inconclusive |  |  |
| CCCS(=O)(=O)Nc1cccc(-c2cn3c(n2)SCC3)c1 |  | inactive [at 46.1 µM] |  |
| c1cc(-c2noc(CC3CCCCC3)n2)ccn1 | inconclusive: 11.2% |  |  |
| Cc1cccc(N=C2NC(=O)CS2)c1 | inconclusive: -23.6% |  |  |
| O=C(N/N=C/c1ccc2nccnc2c1)c1ccccc1O | inconclusive: -16.9% |  |  |
| CCC(C)NCC(=O)Nc1ccc(S(N)(=O)=O)cc1 (stereo not drawn) | inconclusive: 0.635% |  |  |
| Cc1ccc(C(=O)COC(=O)c2cn(-c3ccccc3)nc2-c2ccccc2)cc1[N+](=O)[O-] |  |  | inconclusive: 1.3 µM [activator, full curve] |
| COc1ccc(S(=O)(=O)N2CCC(N3CCCC3)CC2)cc1 | inconclusive: 12% |  |  |
| Cc1ccc(C(=O)NC2CCN(CC(=O)NC3CCC(C)CC3)CC2)cc1 (stereo not drawn) |  |  | inconclusive: 4.61 µM [activator, partial curve, poor fit] |
| CCC(CC)C(=O)Nc1nnc(S(=O)(=O)N2c3ccccc3CC2C)s1 (stereo not drawn) | inconclusive: -24.4% |  |  |
| CC(C)OC(=O)c1ccc(NC(=O)c2cncc(Br)c2)cc1 | inconclusive: -32.2% [at 0.369 µM] |  |  |
| CN(C)C(=O)CSc1nnc(Cc2ccccc2)n1CC1CCCO1 (stereo not drawn) | inconclusive: -21.6% |  |  |
| Cc1ccc2nc(SCC(=O)Nc3ccc(F)cc3)nc(=O)n2c1 | inconclusive |  |  |
| CCOc1ccc(NC(=O)c2ccc(NC(=S)NC3CCCCC3)cc2)cc1 | inconclusive: 15.7% |  |  |
| Cc1ccc2nc3c(cc(C(=O)NCCN4CCOCC4)c(=N)n3CCCN3CCOCC3)c(=O)n2c1 | inconclusive: -43.3% |  |  |
| O=C(NCCN1CCN(C(=O)c2ccc([N+](=O)[O-])cc2)CC1)C(=O)NCc1ccccc1 |  | inactive [at 46.1 µM] |  |
| c1ccc(-c2nnc(N3CCN(c4ccccc4)CC3)nc2-c2ccccc2)cc1 | inconclusive: -8.07% |  |  |
| COC(=O)c1cc2c(C)[nH]c(C)c2cc(C(=O)OC)c1=O |  |  | inconclusive: 0.146 µM [activator, full curve, poor fit] |

| SMILES | lipid storage change, negative = inhibition | outcome | Potency |
| --- | --- | --- | --- |
| CCOC(=O)c1ccc(NC(=O)c2nc[nH]c2C(=O)N[C@@H](Cc2ccccc2)C(=O)OC(C)(C)C)cc1 |  |  | active: 18.4 µM |
| Cc1cc(=O)oc2c(C)c(OCC(=O)N3CCN(C(=O)C4COc5ccccc5O4)CC3)ccc12 (stereo not drawn) | inconclusive: -103% |  |  |
| CCOC(=O)C(NC(=O)CC)(Nc1ccccc1OC)C(F)(F)F (stereo not drawn) |  |  | inconclusive: 18.4 µM [falling, partial curve] |
| O=c1oc2ccc(Cl)cc2nc1/C=C(\O)c1cccs1 | inconclusive: -15.1% |  |  |
| C=CCNc1nc(Nc2ccc([N+](=O)[O-])cc2)nc(OCC)n1 |  |  | inconclusive: 5.17 µM [activator, partial curve, poor fit] |
| COc1cc2c(c(O)c1OC)-c1c(cc(OC)c(OC)c1O)[C@@H](OC(=O)c1ccccc1)[C@@](C)(O)[C@@H](C)[C@@H]2OC(C)=O | inconclusive: -17.9% |  |  |
| O=C(COC(=O)c1cc(NS(=O)(=O)c2cccs2)ccc1O)Nc1ccccc1 | inconclusive: 30.3% |  |  |
| Cc1ccc(C(C)C)c(OCC(=O)N/N=C/c2cccn2C)c1 | inconclusive: -63.6% |  |  |
| CCNC(=S)N1CCN(CCN=CC2=C(O)CC(c3cccs3)CC2=O)CC1 (stereo not drawn) |  |  | inconclusive: 1.84 µM [falling, partial curve] |
| N#Cc1cc2c(nc1SCC(N)=O)CCCCC2 | inconclusive: -1.39% |  |  |
| O=C(CCS(=O)(=O)c1ccccc1)Nc1ccc(-c2nc3ccccc3s2)c(O)c1 | inconclusive: -1.31% |  |  |
| Cn1cc([N+](=O)[O-])c(C(=O)Nc2cnn(Cc3ccc(F)cc3)c2)n1 | inconclusive: 4.93% |  |  |
| COc1cccc2[nH]c3c(N4CCC(C(N)=O)CC4)ncnc3c12 | inconclusive: -15.8% |  |  |
| O=C(Nc1cccc(Cl)c1N1CCOCC1)c1cccs1 |  |  | inconclusive: 6.51 µM [falling, single point] |
| CCc1cc(C(=O)NCCN(C)C)cs1 | inconclusive: -13.6% |  |  |
| CCN(CC(=O)Nc1c(F)cccc1F)C(=O)Cc1ccc(OC)c(S(=O)(=O)N2CCOCC2)c1 | inconclusive |  |  |
| Cc1c(C(=O)c2ccc([N+](=O)[O-])cc2)c(=O)n(C)c(=O)n1C | inconclusive: -21.4% |  |  |
| NC(=O)c1ccccc1NC(=O)/C=C/c1c(Cl)cccc1Cl | inconclusive: 15.9% |  |  |
| CCNC(=O)CC1C(=O)N(c2ccc(C)cc2)C(=O)N1CCc1sccc1C (stereo not drawn) |  |  | inconclusive: 0.58 µM [falling, full curve] |

2 successive records already listed, quoted:

| SMILES | lipid storage change, negative = inhibition | outcome | Potency |
| --- | --- | --- | --- |
| O=C(O)Cc1ccc(NC(=O)Nc2cccc(Cl)c2)cc1 | inconclusive: -7.86% |  |  |
| CC(=O)Nc1cccc(C(=O)OCC(=O)NNC(=O)c2cccs2)c1 | inconclusive |  |  |
